Laboratory results: PMC10770133
No constants are given. Whether binding was seen depends on the method and setting. In cells and extracts the contact can be indirect. Some results given as binding are weak or reduced against the parent protein; the word gives no strength.

Amino acid sequences for entries named in this document (tags omitted).
UniProt Q91YE3: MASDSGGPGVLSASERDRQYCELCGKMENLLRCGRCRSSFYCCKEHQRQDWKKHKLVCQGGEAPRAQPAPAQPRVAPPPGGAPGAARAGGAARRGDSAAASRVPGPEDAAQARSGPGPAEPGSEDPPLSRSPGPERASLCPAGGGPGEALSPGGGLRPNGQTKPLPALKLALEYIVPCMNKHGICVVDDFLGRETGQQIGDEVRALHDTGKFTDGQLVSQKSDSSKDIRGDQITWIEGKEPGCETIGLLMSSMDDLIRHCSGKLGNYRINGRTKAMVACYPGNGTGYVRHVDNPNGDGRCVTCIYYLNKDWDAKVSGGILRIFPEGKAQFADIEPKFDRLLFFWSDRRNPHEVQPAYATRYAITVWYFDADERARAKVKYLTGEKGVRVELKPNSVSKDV
UniProt P40338: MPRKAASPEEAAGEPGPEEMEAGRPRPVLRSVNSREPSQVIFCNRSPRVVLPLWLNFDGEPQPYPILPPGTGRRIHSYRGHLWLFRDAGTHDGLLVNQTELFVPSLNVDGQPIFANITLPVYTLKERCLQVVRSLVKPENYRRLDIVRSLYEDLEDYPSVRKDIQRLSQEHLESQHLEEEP

Molecular target: T1, endogenous AARS2 (mouse cells) (mouse (endogenous in C2C12 and in mouse primary myoblasts)) (UniProt Q14CH7)
T1 sequence: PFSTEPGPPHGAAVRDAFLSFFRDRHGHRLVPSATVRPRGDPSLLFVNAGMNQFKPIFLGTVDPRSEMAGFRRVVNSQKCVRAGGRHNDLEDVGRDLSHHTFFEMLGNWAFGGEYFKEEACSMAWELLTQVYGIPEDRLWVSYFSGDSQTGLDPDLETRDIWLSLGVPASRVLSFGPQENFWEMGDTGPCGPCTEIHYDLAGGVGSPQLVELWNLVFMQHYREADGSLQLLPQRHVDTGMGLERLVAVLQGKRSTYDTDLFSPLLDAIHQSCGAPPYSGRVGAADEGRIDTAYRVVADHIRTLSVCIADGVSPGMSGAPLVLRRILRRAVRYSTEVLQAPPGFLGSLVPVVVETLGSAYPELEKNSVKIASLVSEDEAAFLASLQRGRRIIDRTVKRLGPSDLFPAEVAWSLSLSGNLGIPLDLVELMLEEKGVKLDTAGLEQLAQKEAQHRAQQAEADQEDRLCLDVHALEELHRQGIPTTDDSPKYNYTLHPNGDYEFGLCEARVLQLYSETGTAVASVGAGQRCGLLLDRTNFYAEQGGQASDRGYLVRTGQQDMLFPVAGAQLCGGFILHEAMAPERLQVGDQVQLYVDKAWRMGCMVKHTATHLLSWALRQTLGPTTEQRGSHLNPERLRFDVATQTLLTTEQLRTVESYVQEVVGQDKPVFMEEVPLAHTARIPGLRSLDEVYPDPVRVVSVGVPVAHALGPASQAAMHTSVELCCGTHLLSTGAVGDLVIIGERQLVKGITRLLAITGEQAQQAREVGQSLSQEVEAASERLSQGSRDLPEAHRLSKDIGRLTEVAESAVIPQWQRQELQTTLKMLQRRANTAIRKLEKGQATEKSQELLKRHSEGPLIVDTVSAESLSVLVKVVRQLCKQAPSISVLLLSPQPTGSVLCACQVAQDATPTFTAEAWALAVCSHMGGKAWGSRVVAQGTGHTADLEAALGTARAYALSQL
Experiment: co-IP; endogenous proteins in mouse primary myoblasts (Supplementary Fig. S1k)

Row | binding | Substance
1 | binds | endogenous PHD2 (from UniProt Q91YE3 1-400) (enzyme)
2 | binds | endogenous VHL (from UniProt P40338 1-181)
